The text below walks through data of US20210317204A1.

Protein sequences, listed by entry. Tags and fused reporters are not part of them. Residues count along the entry.
UniProt P02768, residues 25-609: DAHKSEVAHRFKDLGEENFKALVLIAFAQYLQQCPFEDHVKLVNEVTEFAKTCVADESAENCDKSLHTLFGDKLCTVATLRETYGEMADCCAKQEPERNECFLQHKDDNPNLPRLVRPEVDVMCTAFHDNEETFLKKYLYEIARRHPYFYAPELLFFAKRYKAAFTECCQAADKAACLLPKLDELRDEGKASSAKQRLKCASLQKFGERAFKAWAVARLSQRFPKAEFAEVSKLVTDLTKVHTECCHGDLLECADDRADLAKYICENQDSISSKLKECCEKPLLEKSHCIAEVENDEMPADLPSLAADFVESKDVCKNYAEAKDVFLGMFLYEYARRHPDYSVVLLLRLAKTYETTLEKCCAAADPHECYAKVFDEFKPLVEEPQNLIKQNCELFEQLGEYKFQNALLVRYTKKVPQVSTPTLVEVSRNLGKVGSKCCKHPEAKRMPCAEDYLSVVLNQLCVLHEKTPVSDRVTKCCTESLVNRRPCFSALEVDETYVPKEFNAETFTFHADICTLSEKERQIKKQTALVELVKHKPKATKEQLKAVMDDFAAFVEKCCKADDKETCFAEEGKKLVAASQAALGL

Assay [1] concerns the target rat ROR1 extracellular domain-Fc fusion (rat) (UniProt D3ZZ97). The assay can be described thus: ELISA and SPR. For orientation: ELISA stands for enzyme-linked immunosorbent assay.
Assay [2] concerns the target human serum albumin (human) (UniProt P02768). The assay can be described thus: direct ELISA on coated HSA.
The target is the same in assay [3]. The assay can be described thus: direct ELISA on coated HSA. The source holds these as a separate data set.
The target of assay [4] is rat ROR1 extracellular domain-Fc fusion (rat) (UniProt D3ZZ97). The assay can be described thus: ELISA on coated rat ROR1-Fc.

Where two headings read alike, the source gives them in different places. No constants are given. Whether binding was seen depends on the method and setting. Some binding calls cover weakened binding; strength is not graded here. Where a sequence is shown, tags or fusion partners need not be part of it.

B1: P3A1 VNAR (C-terminal His6 or His6Myc tag, not said which) (VNAR, not shown: small tags and cut ends)
VNAR: TRVDQTPRTATKETGESLTINCVLTDTSYGLYSTSWFRKNPGTTDWERMSIGGRYVESVNKGAKSFSLRIKDLTVADSATYYCKAREARHPWLRQWYDGAGTVLTVN
Turning to B1, the binding result in assay [1] is recorded as “binds”; in assay [2], “no binding (tested: 1000 ng/ml)”; in assay [3], “no binding (tested: 10 ug/ml)”; in assay [4] it was “binds”.
